Reference: patent US10745778B2, “Leaching aids and methods of using leaching aids” (BASF SE, priority 2015, dated 2020)

What was measured:
[1] = Column testing, first set of 60 day column leach trials (Example 1); settings: 25 ppm; end of the 60 day leach cycle
[2] = One stage solvent extraction circuit for about one week, then standard QC test for LIX reagents (Example 5); settings: 10 ppm MC1000

CCCCCCCCCC[N+](C)(C)CC(=O)[O-] [MC1000]
average increase in copper leached from the ore (in excess of the control) [1]: 3.7% | Extraction Aqueous Break [2]: 176 s | Extraction Organic break [2]: 60 s | Strip Aqueous Break [2]: 130 s | Strip Organic break [2]: 96 s | delta versus Blank, Extraction Organic break [2]: -9 s | delta versus Blank, Pre QC test Aqueous Break [2]: 44 s | delta versus Blank, Pre QC test Organic break [2]: 79 s | delta versus Blank, Strip Aqueous Break [2]: 1 s | delta versus Blank, Strip Organic break [2]: 29 s | Pre QC test Aqueous Break ([2]; aqueous continuous): 104 s | Pre QC test Organic break ([2]; organic continuous phase break with QC electrolyte): 168 s
